Values joined by “and” are separate entries in the source; they are usually repeats but may differ in a detail not shown here. Equal values may be shown once. Where a name gives a salt, the structure may show the parent alone. ± gives the standard deviation of the averaged measurements. The list shows a part of the results. This is a noisy data set.

The assay has as its system Salmonella enterica serovar Typhimurium ST313 D23580. As to the kind of experiment: normalized bacterial growth (OD600 20 h minus 0 h, interquartile-mean normalized) (fraction of plate interquartile mean); higher = more bacterial growth (less inhibition). The settings on record: LPM (pH 5.8, low phosphate, low Mg2+), concentration: 10 µM, temperature: 37 °C.
The compound `c1ccc2c(c1)[nH]c1cnccc12` had a normalized bacterial growth of 1.01. Next, `CC(=O)N[C@H]1[C@@H](O[C@@H]2O[C@H](C[C@@H](O)[C@@H]3O[C@H](n4ccc(=O)[nH]c4=O)[C@@H](O)[C@H]3O)[C@H](O)[C@H](O)[C@H]2NC(=O)/C=C/CCCCCCCCCCC(C)C)O[C@H](CO)[C@@H](O)[C@@H]1O`: 1.71; `O=C(NC(=O)c1ccccc1Cl)Nc1ccc(OC(F)(F)F)cc1`: 0.966. Next, `NCC(CP(=O)(O)O)c1ccc(Cl)cc1` (stereo not drawn) [Phaclofen]: 0.868.

The compound `CN1[C@@H]2CC[C@H]1C[C@@H](OC(c1ccccc1)c1ccccc1N)C2` (stereo partly drawn) [Aminobenztropine] came in with a normalized bacterial growth of 1.06. The same measure for `CN1Cc2c(ccc3c2OCO3)C2C(O)Cc3cc4c(cc3C21)OCO4` (stereo not drawn): 1.17; for `c1ccc(C2CC2)c(OCC2=NCCN2)c1` [Cirazoline hydrochloride]: 1.16. Next, `C[C@]12CCC(=O)C(O)=C1CC[C@@H]1[C@@H]2CC[C@]2(C)C(=O)CC[C@@H]12`: 0.913. Turning to `CNC(C)(C)Cc1ccccc1` [Mephentermine hemisulfate], the normalized bacterial growth amounted to 0.946.

Take `CNC(C)(C)Cc1ccccc1`: the normalized bacterial growth is 1.07.

Consider `CNC(Cc1c[nH]c2ccccc12)C(=O)O` (stereo not drawn), for which the normalized bacterial growth was 0.998. Next, `C=CCN1CC[C@]23c4c5ccc(O)c4O[C@H]2/C(=N/N=C2\CC[C@@]4(O)[C@H]6Cc7ccc(O)c8c7[C@@]4(CCN6CC=C)[C@H]2O8)CC[C@@]3(O)[C@H]1C5` [Naloxonazine dihydrochloride]: 0.857; `CCCC[C@@H](C)[C@@H](OC(=O)C[C@@H](CC(=O)O)C(=O)O)[C@H](C[C@@H](C)CCCCCC[C@@H](O)C[C@H](O)[C@H](C)N)OC(=O)C[C@@H](CC(=O)O)C(=O)O`: 1.29. The same measure for `CN1CCc2cc3c(c4c2C1Cc1ccccc1-4)OCO3` (stereo not drawn): 0.724. `O=C(OC1CCN(CCCl)CC1)C(c1ccccc1)c1ccccc1` [4-Diphenylacetoxy-N-(2-chloroethyl)piperidine hydrochloride]: the normalized bacterial growth turned out to be 0.885.

`CC(C)C[C@H]1C(=O)N2CCC[C@H]2[C@]2(O)O[C@](NC(=O)[C@@H]3C=C4c5cccc6[nH]c(Br)c(c56)C[C@H]4N(C)C3)(C(C)C)C(=O)N12`: the normalized bacterial growth is 0.872 and 0.654.

Compound `CC(C)C[C@H]1C(=O)N2CCC[C@H]2[C@]2(O)O[C@](NC(=O)[C@@H]3C=C4c5cccc6[nH]c(Br)c(c56)C[C@H]4N(C)C3)(C(C)C)C(=O)N12` [Bromocryptine mesylate] returned a normalized bacterial growth of 0.736. As for `CC(C)C[C@H]1C(=O)N2CCC[C@H]2[C@]2(O)O[C@](NC(=O)[C@@H]3C=C4c5cccc6[nH]c(Br)c(c56)C[C@H]4N(C)C3)(C(C)C)C(=O)N12` [(+)-Bromocriptine methanesulfonate], the normalized bacterial growth was determined as 1.02.

`c1ccc(CCCN2CCN(CCOC(c3ccccc3)c3ccccc3)CC2)cc1` registered a normalized bacterial growth of 0.865. The same measure for `CN1[C@@H]2CC[C@H]1C[C@@H](OC(=O)C(CO)c1ccccc1)C2` (stereo partly drawn): 0.984 and 0.494. Take `CN1[C@@H]2CC[C@H]1C[C@@H](OC(=O)C(CO)c1ccccc1)C2` (stereo partly drawn) [Atropine sulfate]: the normalized bacterial growth is 1.08. Next, `CN1[C@@H]2CC[C@H]1C[C@@H](OC(=O)C(CO)c1ccccc1)C2` (stereo partly drawn) [Atropine sulfate monohydrate]: 1.08; `C[C@H]1CC[C@@H]2N(C1)C[C@H]1[C@@H]3C[C@H]4[C@@H](CC(=O)[C@H]5C[C@@H](O)CC[C@@]54C)[C@@H]3CC[C@H]1[C@]2(C)O`: 1.23. The same measure for `CNCC(O)c1ccc(O)cc1` (stereo not drawn) [()-Synephrine]: 0.959; for `C[C@@H]1CC[C@H]2[C@H](C)[C@H]3CC[C@@]4(O)[C@@H]5CC(=O)[C@H]6CC(=O)CC[C@]6(C)[C@H]5C[C@H]4[C@@H]3CN2C1`: 0.996; for `C#CCOC(=O)C1=CCCN(C)C1` [Arecaidine propargyl ester hydrobromide]: 1.29. In the case of `O=C(Cc1ccc(Cl)c(Cl)c1)N1CCCCC1CN1CCCC1` (stereo not drawn), the normalized bacterial growth was found to be 0.715. For the compound `CCC1=C[C@H]2CN3CCc4c([nH]c5ccccc45)[C@](C(=O)OC)(C2)[C@H]13` [Catharanthine], the normalized bacterial growth turned out to be 0.812. Next, `CN[C@@H]1[C@@H](O)[C@@H](O[C@@H]2[C@@H](O)[C@H](O[C@H]3O[C@H]([C@@H](C)O)[C@@H](O)[C@H](O)[C@H]3N)[C@@H](N)C[C@H]2N)OC[C@]1(C)O`: 0.426. Compound `O=c1c(O)c(-c2ccc(O)c(O)c2)oc2c(O)c(O)cc(O)c12` registered a normalized bacterial growth of 0.981. Compound `CN1CCc2cc3c(cc2C1O)OCO3` (stereo not drawn) [Hydrastinine hydrochloride] yielded a normalized bacterial growth of 0.942. On to `CN(CC[C@H](N)CC(=O)N[C@H]1C=C[C@H](n2ccc(N)nc2=O)O[C@@H]1C(=O)O)C(=N)N`, for which the normalized bacterial growth is 1.25. The same measure for `CC(C)(N)Cc1ccccc1`: 1.1. The same measure for `CC1(C)C2CC(=O)[C@]3(C)C(CC[C@@]4(C)[C@H](c5ccoc5)OC(=O)[C@H]5O[C@]543)[C@@]2(C)C(=O)C[C@H]1O` (stereo partly drawn): 0.818; for `COc1ccc(C(=O)O)cc1OC`: 1.18; for `NCC(=O)c1ccccc1`: 0.768. The compound `CNC(=O)OCC[N+](C)(C)C` [Methylcarbamylcholine chloride] had a normalized bacterial growth of 1.26. Next, `Nc1ncnc2c1ccn2[C@@H]1O[C@H](CO)[C@@H](O)[C@H]1O`: 0.747.

Compound `CNC(=O)Oc1ccc2c(c1)[C@]1(C)CCN(C)[C@@H]1N2C` ["Eserine sulfate, physostigmine sulfate"] gave a normalized bacterial growth of 0.948. Next, `CNC(=O)Oc1ccc2c(c1)[C@]1(C)CCN(C)[C@@H]1N2C` [(-)-Physostigmine]: 0.949. The same measure for `CNC(=O)Oc1ccc2c(c1)[C@]1(C)CCN(C)[C@@H]1N2C`: 0.692 and 1.07; for `CN1[C@H]2C[C@H](OC(=O)[C@H](CO)c3ccccc3)C[C@@H]1[C@@H](O)C2`: 0.908 ± 0.02; for `CN(C)C(=O)Oc1cccc([N+](C)(C)C)c1` [Neostigmine bromide]: 1.03.

`COc1ccc(C(CN(C)C)C2(O)CCCCC2)cc1` (stereo not drawn) [Venlafaxine hydrochloride] came in with a normalized bacterial growth of 1.08. For the compound `COc1ccc(C(CN(C)C)C2(O)CCCCC2)cc1` (stereo not drawn), the normalized bacterial growth was found to be 0.923.

Compound `CCN(CCCl)Cc1ccccc1Br` [DSP-4 hydrochloride] showed a normalized bacterial growth of 1.3.

For the compound `Cc1o[nH]c(=O)c1CC(N)C(=O)O` (stereo not drawn) [()-AMPA hydrobromide], the normalized bacterial growth turned out to be 1.01. Next, `C=C1[C@@H](C)[C@H]2[C@H](Cc3ccccc3)NC(=O)[C@]23[C@H](OC(C)=O)/C=C/[C@@](C)(O)C(=O)[C@@H](C)C/C=C/[C@H]3[C@@H]1O`: 1.03. Next, `COc1ccccc1N1CCNCC1` [1-(2-Methoxyphenyl)piperazine hydrochloride]: 1.13; `CC(=O)c1c(O)c(C)c(O)c(Cc2c(O)c3c(c(C(=O)/C=C/c4ccccc4)c2O)OC(C)(C)C=C3)c1O`: 0.967; `CC(=O)[C@H]1CC[C@H]2[C@@H]3CC[C@H]4C[C@H](O)CC[C@]4(C)[C@H]3C(=O)C[C@]12C` ["5alpha-Pregnan-3alpha-ol-11,20-dione"]: 1.04. Next, `CC(C)=CCC[C@]1(C)C=Cc2c(O)c3c(c(CC=C(C)C)c2O1)O[C@]12C(=C[C@@H]4C[C@H]1C(C)(C)O[C@@]2(C/C=C(/C)C(N)=O)C4=O)C3=O`: 0.971. On to `CC1=NN=C(c2ccc(N)cc2)c2cc3c(cc2C1)OCO3`, for which the normalized bacterial growth came out at 1.06. `O=C(O)c1cc[c]([Hg][Cl])cc1` [4-Chloromercuribenzoic acid] registered a normalized bacterial growth of 0.00794. For the compound `CC1CC(Cl)CCC1C(=O)OC(C)(C)C` (stereo not drawn), the normalized bacterial growth amounted to 0.752.

As to `O=C1C=CC(=O)C=C1` [p-Benzoquinone], the normalized bacterial growth is 1.14.

`COc1ccc2c(c1OC)C(=O)OC2C1c2cc3c(cc2CCN1C)OCO3` (single isomer, unassigned; (+)) [(+)-Hydrastine] yielded a normalized bacterial growth of 0.93. The same measure for `COc1ccc(C(c2ccc(OC)cc2)C(Cl)(Cl)Cl)cc1`: 0.917; for `COC(=O)NC(=S)Nc1ccccc1NC(=S)NC(=O)OC`: 1.13; for `O=C(O)[C@@H]1CCN1` [L-azetidine-2-carboxylic acid]: 1.02. The same measure for `CNC(=O)Oc1ccccc1OC(C)C`: 1.18; for `COc1cc([C@@H]2c3cc4c(cc3[C@H](OC(C)=O)[C@H]3COC(=O)[C@@H]23)OCO4)cc(OC)c1OC`: 0.937; for `O=C(O)Cc1cnc[nH]1`: 1.06. Next, `O=C(O)Cc1cnc[nH]1` [Imidazole-4-acetic acid hydrochloride]: 1.08. Compound `c1ccc2c(c1)sc1ccccc12` had a normalized bacterial growth of 1.06.

For the compound `O=P1(N(CCCl)CCCl)NCCCO1` (stereo not drawn) [Cyclophosphamide monohydrate], the normalized bacterial growth came out at 0.886. Next, `O=P1(N(CCCl)CCCl)NCCCO1` (stereo not drawn): 1.04; `CCCn1c(C)c(C(=O)c2cccc3ccccc23)c2ccccc21`: 1.01.

As to `CN1C(=O)CCS(=O)(=O)C1c1ccc(Cl)cc1` (stereo not drawn) [Chlormezanone], the normalized bacterial growth is 1.02. Next, `CC(=O)OCC1=C(C(=O)[O-])N2C(=O)[C@@H](NC(=O)CCC[C@@H](N)C(=O)[O-])[C@H]2SC1.[Zn+2]` [Cephalosporin C zinc salt]: 1.23; `CO[C@@H]1C=C2CCN(C)[C@@H]2C2c3cc4c(cc3C(=O)OC21)OCO4` (stereo partly drawn) [Ungerine nitrate]: 0.958; `COc1cc2c(cc1OC)C13CC[N+]4([O-])CC5=CCOC6CC(=O)N2C1C6C5CC34` (stereo not drawn): 1.28. The same measure for `CCCCCCC(=O)CCCCCC/C=C/C[C@@H](O)[C@H](O)[C@@](N)(CO)C(=O)O`: 0.902; for `CCCCCCCCCCCCCCCC[n+]1ccccc1`: 0.106.

In turn, `C=CCC1(C(C)CCC)C(=O)NC(=S)NC1=O` (stereo not drawn) registered a normalized bacterial growth of 1.01. Next, `c1ccc2c3c([nH]c2c1)CNCC3`: 0.625. Consider `CCCN1CCO[C@@H]2c3cc(O)ccc3OC[C@H]21` ["S(+)-PD 128,907 hydrochloride"], for which the normalized bacterial growth was 0.8. Next, `C[C@@H]1O[C@@H](O[C@H]2C[C@@H](O)[C@]3(CO)[C@H]4[C@H](O)C[C@]5(C)[C@@H]([C@@H]6COC(=O)C6)CC[C@]5(O)[C@@H]4CC[C@]3(O)C2)[C@H](O)[C@H](O)[C@H]1O` [Dihydroouabain]: 1.09.
